Source: patent publication US12029748B2, “Synergistic composition for maintenance of healthy balance of microflora” (KIMBERLY-CLARK WORLDWIDE, INC., priority 2017, dated 2024)
Where a SMILES comes first, the peptide text is derived from it.

Tested on: L. crispatus and E. coli
Experiment: Therapeutic Effect Protocol: L. crispatus / E. coli co-culture, ratio after 36 hours
Format: cell-based, Lactobacillus crispatus; E. coli
Conditions: pH of test solution 36 hours after inoculation; for F pH (final pH), 0.10%: nitrogen compound 0.10 wt/vol % with 1.0 wt/vol % α methyl-D glucoside; for F pH (final pH), 0.50%: nitrogen compound 0.50 wt/vol % with 1.0 wt/vol % α methyl-D glucoside; for F pH (final pH), 1.00%: nitrogen compound 1.00 wt/vol % with 1.0 wt/vol % α methyl-D glucoside
Protocol: As used herein the term “therapeutic effect” refers to the ability of the compositions and formulations of the present invention to stimulate the growth of Lactobacillus relative E. coli measured according to the Therapeutic Effect Protocol described below. Generally, therapeutic effect is expressed as a ratio of Lactobacillus to E. coli and is desirably greater than about 2, more preferably greater than about 20 and more desirably greater than about 100.
The data in Table 1 was tested according to the Therapeutic Effect Protocol as described further herein. The nitrogen compounds were tested for their therapeutic efficacy at three different concentrations when combined with α methyl-D glucoside (1% wt/vol %). The concentrations of the nitrogen containing compounds that were tested were 1% wt/vol %, 0.5% wt/vol %, and 0.1% wt/vol %.
Colonies of L. crispatus and E. coli were prepared as follows. A colony of L. crispatus was transferred to 7 ml de Man, Rogosa & Sharpe (MRS) broth and incubated anaerobically (using BD GasPak EZ anaerobe container system with indicator) at 37° C. without shaking for 18-20 hours. A colony of E. coli was transferred to 5 ml Tryptic Soy Broth (TSB) and incubated aerobically (shaking at 100 rpm) at 37° C. for 18-20 hours.
Colonies were then inoculated as follows. Bacterial cultures were gently vortexed and 1 mL of each culture was transferred to a corresponding 2.0 mL micro-centrifuge tube and then centrifuged for two minutes at 14,500 rpm. The cultural supernatant was removed and the cell pellet was re-suspended in 1 mL of 0.95% (wt/vol %) saline. […] For L. crispatus, the pellet was re-suspended in 1 mL of 0.95% saline to achieve ˜10^7-10^8 cfu/mL. For E. coli, the pellet was re-suspended in 1 mL of 0.95% saline to achieve ˜10^8-10^9 cfu/mL.
Media were prepared as follows.
All of the ingredients in Table 2 were combined and the pH was adjusted to 6.5. […] To evaluate the effect of various nitrogen containing therapeutic agents on the growth of bacteria, the LAPT-g media, prepared as described above, was supplemented with various nitrogen containing compound therapeutic agents to a final test concentration between 0.1 and 1.0%. As initial screening measures, solubility and initial pH of each composition were checked. If a specific composition was insoluble (as detected by visual indication of precipitates or turbidity), then no further therapeutic efficacy testing was undertaken on that composition. Additionally, if the initial pH of the composition was below 5.5 (“Low”) or was above 6.5 (“High”), then no further therapeutic efficacy testing was undertaken on that composition.
Five milliliters (5 mL) of each medium was transferred to a test tube in duplicates for subsequent inoculation. A master mixture of L. crispatus and E. coli, prepared as described above, was prepared in 1,000:1 ratio. Each (5 ml) test tube was inoculated with the master mixture to give 10^5-10^6 total CFU L. crispatus and 100-1,000 total CFU E. coli per tube.
To establish a negative control, one tube was vortexed and 100 μL was removed to determine the initial cell concentrations by serial dilutions and plating (2 plates per dilution). L. crispatus is selected on MRS agar plates incubated anaerobically at 37° C. for two days. E. coli is selected on TSA plates incubated aerobically at 37° C. for one day. The co-cultures were incubated in an anaerobic container with BD GasPaks at 37° C. for 36 hours.
The effect of the α methyl-D glucoside and the nitrogen containing compound therapeutic agents on the ratio of L. crispatus to E. coli was measured 36 hours after inoculation and a final pH of the test solutions was recorded. The co-culture tube was vortexed and 100 μL was removed to determine the final cell concentrations by serial dilutions and plating (2 plates per dilution). L. crispatus is selected on MRS agar plates incubated anaerobically at 37° C. for two days.

SMILES | F pH (final pH), 0.10% | F pH (final pH), 0.50% | F pH (final pH), 1.00%
O=C1NC(=O)C(=O)C(=O)N1 [Alloxan] | 4.5 | 4 | 
N.O.O.O.O.O=P([O-])(O)O.[Na+] [Ammonium Sodium Phosphate] | 4.5 |  | 
N=C(N)NCCC[C@@H](N)C(=O)O [D-Arginine] | 4.5 |  | 
C[C@H](NC(=O)CN)C(=O)O [Glycyl-Alanine] (H-Gly-Ala-OH) | 4 | 3.5 | 4
N=C(N)NCCC[C@H](N)C(=O)O [L-Arginine] | 5 |  | 
NCCCC[C@H](N)C(=O)O [L-Lysine] | 4.5 | 4.5 | 6
N[C@@H](Cc1c[nH]c2ccccc12)C(=O)O [L-Tryptophan] | 4.5 | 5 | 
CNCCc1ccccc1.Cl [Methyl(2-phenylethyl)amine Hydrochloride] | 4 | 5 | 5.5
